Measured values published in publication PMC9740131.

Sequences of proteins named here, by UniProt entry; tags and fusion partners are left off. A change or cut given only in a name is not applied to a line headed by its entry.
UniProt Q9UHB6: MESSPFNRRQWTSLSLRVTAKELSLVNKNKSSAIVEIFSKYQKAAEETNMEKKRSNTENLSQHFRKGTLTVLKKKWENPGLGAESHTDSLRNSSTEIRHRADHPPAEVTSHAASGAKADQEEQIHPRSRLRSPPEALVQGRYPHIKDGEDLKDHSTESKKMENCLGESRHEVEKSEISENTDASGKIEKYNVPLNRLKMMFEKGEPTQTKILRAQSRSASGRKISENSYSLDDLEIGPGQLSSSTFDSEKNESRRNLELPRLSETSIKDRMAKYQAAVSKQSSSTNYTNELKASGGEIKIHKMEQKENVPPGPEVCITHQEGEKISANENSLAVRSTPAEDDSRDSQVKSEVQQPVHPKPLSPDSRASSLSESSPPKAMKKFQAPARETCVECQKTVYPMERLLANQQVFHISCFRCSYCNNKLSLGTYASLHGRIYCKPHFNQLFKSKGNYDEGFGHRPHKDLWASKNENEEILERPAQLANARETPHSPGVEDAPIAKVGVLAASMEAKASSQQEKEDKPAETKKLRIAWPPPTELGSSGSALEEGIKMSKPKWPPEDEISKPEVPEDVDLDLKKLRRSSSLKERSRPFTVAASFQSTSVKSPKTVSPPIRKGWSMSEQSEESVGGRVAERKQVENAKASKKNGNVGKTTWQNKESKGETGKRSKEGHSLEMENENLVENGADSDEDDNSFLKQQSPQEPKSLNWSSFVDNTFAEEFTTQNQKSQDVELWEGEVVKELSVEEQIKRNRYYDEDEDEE
UniProt O95831: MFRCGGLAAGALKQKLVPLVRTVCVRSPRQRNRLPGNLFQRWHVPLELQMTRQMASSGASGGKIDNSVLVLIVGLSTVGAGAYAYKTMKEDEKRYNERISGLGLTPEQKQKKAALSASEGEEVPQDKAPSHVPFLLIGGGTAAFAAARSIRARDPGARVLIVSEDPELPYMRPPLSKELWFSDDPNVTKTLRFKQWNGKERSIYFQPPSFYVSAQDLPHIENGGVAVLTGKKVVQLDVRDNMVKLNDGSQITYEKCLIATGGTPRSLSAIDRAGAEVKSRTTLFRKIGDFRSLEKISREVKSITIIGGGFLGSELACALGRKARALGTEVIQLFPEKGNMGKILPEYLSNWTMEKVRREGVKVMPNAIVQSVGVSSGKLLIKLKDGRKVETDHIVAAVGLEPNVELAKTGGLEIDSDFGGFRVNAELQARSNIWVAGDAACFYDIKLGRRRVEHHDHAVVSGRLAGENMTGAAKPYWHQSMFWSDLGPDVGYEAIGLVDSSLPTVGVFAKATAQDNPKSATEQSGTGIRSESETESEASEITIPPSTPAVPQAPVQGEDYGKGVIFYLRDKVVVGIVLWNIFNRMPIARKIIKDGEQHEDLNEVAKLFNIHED

Molecular target: LIM domain and actin binding 1 (LIMA1) (human (endogenous in Huh7)) (UniProt Q9UHB6)
Assay: co-IP; endogenous proteins of Huh7 cells lysed with NP-40 and 1% PMSF; Pierce Magnetic IP/Co-IP Kit; western blotting

Substance: AIFM1 (from UniProt O95831)
- binding: no binding

These are yes or no findings as the source states them, for the method shown. Binding seen in cells or lysates may run through a third protein.
